Patent US20090239918A1, “SELECTIVE SUBTYPE ALPHA 2 ADRENERGIC AGENTS AND METHODS FOR USE THEREOF” (ALLERGAN, INC., priority 2008, published 2009)

Amino acid sequences for entries named in this document (tags omitted).
UniProt P18089, whole entry: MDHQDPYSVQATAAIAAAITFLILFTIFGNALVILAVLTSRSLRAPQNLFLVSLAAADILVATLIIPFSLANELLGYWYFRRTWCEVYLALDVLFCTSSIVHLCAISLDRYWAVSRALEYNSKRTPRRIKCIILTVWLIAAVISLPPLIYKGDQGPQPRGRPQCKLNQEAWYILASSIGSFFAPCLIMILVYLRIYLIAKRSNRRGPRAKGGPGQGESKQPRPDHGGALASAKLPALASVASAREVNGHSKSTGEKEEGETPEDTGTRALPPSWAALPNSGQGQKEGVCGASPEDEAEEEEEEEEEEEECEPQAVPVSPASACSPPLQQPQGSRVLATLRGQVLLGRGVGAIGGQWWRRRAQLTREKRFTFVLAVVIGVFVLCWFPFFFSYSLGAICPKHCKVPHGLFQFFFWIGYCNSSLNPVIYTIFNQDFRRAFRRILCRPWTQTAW

Target: Alpha 2B receptor (Homo sapiens, UniProt P18089)
Experiment: RSAT (Receptor Selection and Amplification Technology) assay, alpha 2B
Protocol: 76, pp. 308-311 (incorporated herein by reference) and is also described below.
The RSAT assay measures a receptor-mediated loss of contact inhibition that results in selective proliferation of receptor-containing cells in a mixed population of confluent cells. The increase in cell number is assessed with an appropriate transfected marker gene such as β-galactosidase, the activity of which can be easily measured in a 96-well format. Receptors that activate the G protein, Gq, elicit this response. Alpha 2 receptors, which normally couple to Gi, activate the RSAT response when coexpressed with a hybrid Gq protein that has a Gi receptor recognition domain, called Gq/i5.
NIH-3T3 cells are plated at a density of 2×10^6 cells in 15 cm dishes and maintained in Dulbecco's modified Eagle's medium supplemented with 10% calf serum. […] After washing with phosphate-buffered saline, β-galactosidase enzyme activity is determined by adding 200 μL of the chromogenic substrate (consisting of 3.5 mM o-nitrophenyl-β-D-galactopyranoside and 0.5% nonidet P-40 in phosphate buffered saline), incubating overnight at 30° C. and measuring optical density at 420 nm. The absorbance is a measure of enzyme activity, which depends on cell number and reflects a receptor-mediated cell proliferation. […]

RSAT (rel eff) Alpha 2B, intrinsic activity (ratio of maximal effect of the drug to maximal effect of standard full agonist brimonidine): 0.84 | EC50 (read-out: RSAT EC50 (nM) Alpha 2B, NIH-3T3 cells cotransfected with receptor and Gq/i5, na = not active): 0.66 nM
Compound: Clc1cccc(C(Cc2ccccc2Br)NC2=NCCN2)c1 (centres unmarked)

The match of structure and compound is tentative.
